Source: patent US20070179110A1, “EXPRESSION OF IMMUNOGENIC SUBSTANCES” (Mayo Foundation for Medical Education and Research, priority 1997, published 2007)
For at least one compound, name, drawing or mass did not settle the structure. Some of these results come from one statement about several compounds together.

How the values were obtained:
Jurkat cells = assay: Anti-CD3ε induced IL-2 secretion of Jurkat cells (IL-2 release assay); format: cell-based, human; conditions: not shown
Protocol: Subsequently the cells were washed, counted and stimulated (10^5/well) in triplicate with plastic-immobilised NIP10-BSA conjugates (iNIP10-BSA) or plastic immobilised anti-CD3E mAb (ianti-CD3) in fresh CM alone or in the presence of the drugs (12). The plates were incubated at 37° C. in 5% CO2. After 20 hours supernatants were harvested and assayed for IL-2 activity using an ELISA kit (Genzyme Diagnostics, Cambridge, Mass.).

chTCR gene expression [1] = assay: Recovery of TRP-driven chTCR expression after withdrawal of tetracyclines, JLAV12S cells; format: cell-based, human; conditions: for recovery of the activity of the TRP after lower pretreatment concentrations: lower concentrations than 1 μg/ml (Dox 1, 10, 100 ng/ml)
chTCR gene expression [2] = assay: Regulation of surface chTCR expression by tetracyclines in JLAV12S (pLAV12-transfected Jurkat) cells, FACS; format: cell-based, human
Protocol: The Jurkat T cell line (clone E6-l) was maintained in RPMI 1640 supplemented with 10% foetal calf serum (FCS), 2 mM L-glutamine, 100 U/ml penicillin, 100 μg/ml streptomycin and 25 mM HEPES buffer (all from GIBCO-BRL, Gaithersburg, Md.), referred to as complete medium (CM). To generate stable cell lines Jurkat cells were transfected with linearized plasmid DNA (10 μg) by electroporation, at […] and 960 μF, as described previously (13). Transfectants were selected in CM supplemented with 0.4 mg/ml of hygromycin B (Calbiochem, San Diego, Calif.). Stable cell lines were established after 3-4 weeks and analyzed by FACS for expression of the chTCR. To select a population of chTCR ζ expressing cells, stable Jurkat cells transfected with the linearized pLAV12 or pCEP4.aNIP.TCR ζ derived plasmid fragments were FACS sorted (see below). The resultant populations were cloned twice by limiting dilution and screened for protein expression by flow cytometry.
Expression of cell surface proteins was performed by standard direct immunofluorescence as described (14) using saturating amounts of FITC-conjugated antibodies. Dead cells were excluded from analysis using a combination of propidium iodide and forward light scatter. Appropriate FITC isotype-matched irrelevant Abs were used in all experiments. The samples were analysed with a FACScan® (Becton Dickinson, Mountain View, Calif.). A minimum of 20,000 cells was analysed for each sample. Subsequent re-analysis of data was performed using the CELLQuest software (version 1.2) (Becton Dickinson). Additionally, cells stained with FITC-conjugated goat antisera to mouse λ light chain were sorted under sterile conditions on a cell sorter (FACScalibur, Becton Dickinson).
To study the time-course of inactivation of gene expression, JLAV12S cells were analysed at different times after addition of the antibiotics at 1 μg/ml (FIG. 2B).
A dose-response curve of gene repression was determined using different concentrations of Tet or Dox. After 48 hours of treatment, the cells were harvested and the expression of the chTCR was studied by FACS analysis.
Stably transfected uncloned (JLAV12S, left hand column) and cloned (1F5, middle column; and 2E11, right hand column) Jurkat cell populations were cultured for 48 hours in the presence of different concentrations (0 ng/ml top row, 0.1 ng/ml second row, 1 ng/ml third row, and 10 ng/ml bottom row) of Tet (broken line) or Dox (solid line) and the surface expression of scFv-TCR ζ molecules was examined. Negative controls (FITC-conjugated goat antisera to mouse IgG) are overlaid (filled curve). The fluorescence channel number is plotted along the x axis, and the y axis represents the relative cell number.

TCR/CD3 complex = assay: Surface staining of TCR/CD3 complex with anti-CD3ε mAbs; format: cell-based, human; conditions: both cell populations (JLAV12S, JN3S), 1 μg/ml, 48 hours; not shown
TRS = conditions: previous studies on the TRS (ref. 18); cited from earlier work
chTCR gene expression [3] = assay: Surface chTCR expression in control JN3S cells (constitutive CMV IE promoter), FACS; format: cell-based, human; conditions: 1 μg/ml, 48 hours
[4] = JLAV12S cells pretreated 48 hours with 1 μg/ml

Row | Structure (SMILES) | effect on anti-CD3ε induced IL-2 secretion (Jurkat cells; 100 ng/ml or lower concentrations) | recovery of chTCR expression at 192 hours after removal of the drug (chTCR gene expression [1]; [4]) | time after drug removal at which chTCR expression was first detected on the cell surface (chTCR gene expression [1]; [4]) [h] | time after drug removal to full recovery / maximal levels of chTCR expression (chTCR gene expression [1]; cells pretreated with 1 μg/ml) [h] | recovery of the activity of the TRP after lower pretreatment concentrations (chTCR gene expression [1]) | chTCR expression within 8 hours of exposure (chTCR gene expression [2]; JLAV12S cells, 1 μg/ml) | time to maximum repression (chTCR gene expression [2]; JLAV12S cells, 1 μg/ml) [h] | expression of the chTCR relative to the level in the absence of tetracyclines at the same time point (chTCR gene expression [2]; JLAV12S cells, 1 μg/ml, 24 hours) | concentration range of full repression of the TRP (chTCR gene expression [2]; in our system) [pg/mL] | amount of TCR/CD3 complex (TCR/CD3 complex) | potency relative to tetracycline (TRS) [fold] | effect on surface chTCRs (chTCR gene expression [3]) | effect on anti-CD3ε induced IL-2 secretion (Jurkat cells; concentrations lower than or equal to 1 μg/ml) | time the TRP remained repressed after drug removal (chTCR gene expression [1]; cells pretreated with 1 μg/ml, data not shown) [h] | concentrations at which induction of the chTCR gene was only partially repressed (chTCR gene expression [2]; 48 hours) [pg/mL]
1 | C[C@H]1c2cccc(O)c2C(=O)C2=C(O)[C@]3(O)C(=O)C(C(N)=O)=C(O)[C@@H](N(C)C)[C@@H]3[C@@H](O)[C@@H]21 [doxycycline] | unaffected | not apparent | 216 | 288 | earlier recovery | slight reduction | ≤ 24 | less than 10% | 100 to 1000 | remained constant | 100 | not affected | – | – | –
2 | CN(C)[C@@H]1C(O)=C(C(N)=O)C(=O)[C@@]2(O)C(O)=C3C(=O)c4c(O)cccc4[C@@](C)(O)[C@H]3C[C@@H]12 [tetracycline] | – | – | – | 72 | earlier recovery | – | ≤ 24 | – | – | remained constant | – | not affected | did not influence | 24 | 100 to 1000
